Test results: publication PMC7887271, “Fast acting allosteric phosphofructokinase inhibitors block trypanosome glycolysis and cure acute African trypanosomiasis in mice” (Nature Communications, 2021)

Test system: T. b. gambiense
Experiment: EC50 against in vitro cultured T. b. gambiense (STMI)
Format: cell-based

| Compound | improvement in killing for T. b. gambiense over T. b. brucei |
| --- | --- |
| CN(C)CCn1ccc2c(ccn2Cc2ccc(Cl)c(Cl)c2)c1=O [CTCB-405, 1-[(3,4-Dichlorophenyl)methyl]-5-[2-(dimethylamino)ethyl] pyrrolo[3,2-c]pyridin-4-one] | 2 fold |
| CN(C)CCn1ccc2c(ccn2Cc2ccc(Cl)c(Br)c2)c1=O [CTCB-470, 1-[(3-Bromo-4-chlorophenyl)methyl]-5-[2-(dimethylamino)ethyl] pyrrolo[3,2-c]pyridin-4-one] | 2 fold |
